From PMC12376620, “A Novel OsMPK6‐OsMADS47‐PPKL1/3 Module Controls Grain Shape and Yield in Rice”
Read-outs that look alike come from different tables or passages of the source. These are yes or no findings as the source states them, for the method shown. For some of these results: Binding seen in cells or lysates may run through a third protein. Some results given as binding are weak or reduced against the parent protein; the word gives no strength. For some of these results: Where a sequence is shown, tags or fusion partners need not be part of it. One block for each molecule: values may come before it.

Protein sequences, listed by entry. Tags and fused reporters are not part of them. Lines headed by an entry give the natural chain unless they say otherwise; changes in a name come on top.
UniProt Q84UI5: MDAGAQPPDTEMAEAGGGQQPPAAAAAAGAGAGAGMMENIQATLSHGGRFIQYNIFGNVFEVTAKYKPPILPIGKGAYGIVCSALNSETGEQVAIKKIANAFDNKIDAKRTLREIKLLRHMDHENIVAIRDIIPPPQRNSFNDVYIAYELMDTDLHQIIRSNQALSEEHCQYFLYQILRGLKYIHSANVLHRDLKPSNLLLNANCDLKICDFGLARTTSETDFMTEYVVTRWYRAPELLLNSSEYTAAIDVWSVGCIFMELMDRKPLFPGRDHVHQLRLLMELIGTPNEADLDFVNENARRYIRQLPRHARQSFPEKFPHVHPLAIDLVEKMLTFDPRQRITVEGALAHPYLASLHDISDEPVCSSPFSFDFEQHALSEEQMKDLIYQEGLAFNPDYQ
UniProt Q5K4R0: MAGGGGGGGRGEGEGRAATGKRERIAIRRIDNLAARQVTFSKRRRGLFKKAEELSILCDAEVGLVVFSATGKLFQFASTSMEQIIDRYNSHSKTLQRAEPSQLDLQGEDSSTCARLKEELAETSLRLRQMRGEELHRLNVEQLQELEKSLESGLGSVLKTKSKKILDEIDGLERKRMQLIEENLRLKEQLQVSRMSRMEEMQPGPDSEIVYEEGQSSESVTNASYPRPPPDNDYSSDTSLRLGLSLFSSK

Assays:
GST-OsMPK6 (rice) = GST-OsMPK6 (rice) (UniProt Q84UI5); assay: pull-down; semi-in vivo: GST fusion pre-immobilized on GST beads, incubated with total protein extract of 7-day HA-OsMADS47 overexpression shoots in IP lysis buffer (50 mM Tris-HCl pH 7.5, 1% Triton X-100, 150 mM NaCl) at 4 °C for 1.5 h; anti-HA blot; only the target purified
OsMADS47-CLUC (rice) = OsMADS47-CLUC (rice) (UniProt Q5K4R0); assay: split reporter; luciferase complementation imaging; NLUC and CLUC fusions co-infiltrated into 3-week-old N. benthamiana leaves, 2.5 mM luciferin, imaged 72 h after infiltration; for the homodimer also with co-expressed OsMPK6 or OsMKK4^CA and OsMPK6
[1] = biological target: OsMADS47^S78/80T70/79A (yeast two-hybrid fusion) (rice) (UniProt Q5K4R0); assay: two-hybrid; in yeast cells; selection medium not stated (Figures 6A, S9A, S9C, S12, S15)
[2] = biological target: OsMADS47^S78/80T70/79D (yeast two-hybrid fusion) (rice) (UniProt Q5K4R0); assay: as above
[3] = biological target: OsMADS47 (yeast two-hybrid fusion) (rice) (UniProt Q5K4R0); assay: as above
[4] = biological target: OsMADS47 (yeast two-hybrid fusion) (rice) (UniProt Q5K4R0); assay: as above; remark: listed apart in the source

binding (GST-OsMPK6 (rice)): binds
Molecule: HA-OsMADS47 (from UniProt Q5K4R0 1-250)

binding (OsMADS47-CLUC (rice)): binds
Molecule: OsMADS47-CLUC (from UniProt Q5K4R0 1-250)

binding [1]: no binding
Molecule: OsMADS47^S78/80T70/79A (yeast two-hybrid fusion) (from UniProt Q5K4R0 1-250)

binding [2]: binds
Molecule: OsMADS47^S78/80T70/79D (yeast two-hybrid fusion) (from UniProt Q5K4R0 1-250)

binding [3]: binds
Molecule: OsMPK6 (yeast two-hybrid fusion) (from UniProt Q84UI5 1-398) (enzyme)

binding (OsMADS47-CLUC (rice)): binds
Molecule: OsMPK6-NLUC (from UniProt Q84UI5 1-398) (enzyme)

binding [4]: binds
B1: OsMPK3 (yeast two-hybrid fusion) (enzyme, UniProt Q10N20 1-369)
chain: MDGAPVAEFRPTMTHGGRYLLYDIFGNKFEVTNKYQPPIMPIGRGAYGIVCSVMNFETREMVAIKKIANAFNNDMDAKRTLREIKLLRHLDHENIIGIRDVIPPPIPQAFNDVYIATELMDTDLHHIIRSNQELSEEHCQYFLYQILRGLKYIHSANVIHRDLKPSNLLLNANCDLKICDFGLARPSSESDMMTEYVVTRWYRAPELLLNSTDYSAAIDVWSVGCIFMELINRQPLFPGRDHMHQMRLITEVIGTPTDDELGFIRNEDARKYMRHLPQYPRRTFASMFPRVQPAALDLIERMLTFNPLQRITVEEALDHPYLERLHDIADEPICLEPFSFDFEQKALNEDQMKQLIFNEAIEMNPNIRY
